Results as given in the supplement of paper PMC10994270.
This is one part of the list.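 The calls were made as follows: active = probability of classifying as wild-type above 0.505; inactive = 0.505 or below.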 Most values come without repeats; read them as rough.

System: SORL1-/- neural progenitor cells (hiPSC WTSIi004-B derived)
Assay: probability of classification as wild-type phenotype (neural network, relative to DMSO-treated WT vs SORL1-/- controls) (fraction); higher = more similar to wild-type morphology (phenotypic rescue)
Settings: 100 nM; SORL1-/- sub-clone: WB8; 24 h

probability, active:
CN(C)C/C=C/C(=O)Nc1cc2c(Nc3ccc(F)c(Cl)c3)ncnc2cc1O[C@H]1CCOC1.O=C(O)/C=C\C(=O)O.O=C(O)/C=C\C(=O)O [Afatinib Dimaleate] 1
CCOc1cc2ncc(C#N)c(Nc3ccc(OCc4ccccn4)c(Cl)c3)c2cc1NC(=O)/C=C/CN(C)C [Neratinib] 0.571
N[C@@H]1CCCC[C@H]1N.O=C1[O][Pt][O]C1=O [Oxaliplatin] 0.939
CN(C)N=Nc1nc[nH]c1C(N)=O [Dacarbazine] 0.842
C/C(=C\c1csc(C)n1)[C@@H]1C[C@@H]2O[C@]2(C)CCC[C@H](C)[C@H](O)[C@@H](C)C(=O)C(C)(C)[C@@H](O)CC(=O)N1 [Ixabepilone] 0.64
CCN(CC)CCNC(=O)c1c(C)[nH]c(/C=C2\C(=O)Nc3ccc(F)cc32)c1C.O=C(O)C[C@H](O)C(=O)O [Sunitinib Malate] 0.984
CC(=O)O[C@@]12CO[C@@H]1C[C@H](O)[C@@]1(C)C(=O)[C@H](O)C3=C(C)[C@@H](OC(=O)[C@H](O)[C@@H](NC(=O)OC(C)(C)C)c4ccccc4)C[C@@](O)([C@@H](OC(=O)c4ccccc4)[C@H]21)C3(C)C.O.O.O [Docetaxel trihydrate] 0.711

Same assay, conditions: 100 nM; SORL1-/- sub-clone: XE10; 24 h

probability, active:
Nc1cccc2c1C(=O)N(C1CCC(=O)NC1=O)C2=O (stereo unspecified) [Pomalidomide] 0.837
Cc1cc(Nc2ncc(Cl)c(Nc3ccccc3S(=O)(=O)C(C)C)n2)c(OC(C)C)cc1C1CCNCC1 0.514
C=CC(=O)Nc1cc(Nc2nccc(-c3cn(C)c4ccccc34)n2)c(OC)cc1N(C)CCN(C)C [Osimertinib] 0.997
CC(=O)O[C@@]12CO[C@@H]1C[C@H](O)[C@@]1(C)C(=O)[C@H](O)C3=C(C)[C@@H](OC(=O)[C@H](O)[C@@H](NC(=O)OC(C)(C)C)c4ccccc4)C[C@@](O)([C@@H](OC(=O)c4ccccc4)[C@H]21)C3(C)C [Docetaxel] 0.578
c1cc(CN2CCCNCCNCCCNCC2)ccc1CN1CCCNCCNCCCNCC1 [Plerixafor] 0.537
Cc1cc2c(cc1S(N)(=O)=O)S(=O)(=O)CCC2 [Meticrane] 0.778

2 compounds picked at random from those above:
probability, active:
Cc1cc2c(cc1S(N)(=O)=O)S(=O)(=O)CCC2 [Meticrane] 0.778
Nc1cccc2c1C(=O)N(C1CCC(=O)NC1=O)C2=O (stereo unspecified) [Pomalidomide] 0.837

Same assay, conditions: 300 nM; SORL1-/- sub-clone: WB8; 24 h

probability, active:
Cc1[nH]c2ccccc2c1CCNCc1ccc(/C=C/C(=O)NO)cc1 [Panobinostat] 0.75
C=C1/C(=C\C=C2/CCC[C@]3(C)[C@@H]([C@H](C)CCCC(C)(C)O)CC[C@@H]23)C[C@@H](O)C[C@@H]1O [Calcitriol] 0.805
CC(=O)O[C@H]1C(=O)[C@@]2(C)[C@H]([C@H](OC(=O)c3ccccc3)[C@]3(O)C[C@H](OC(=O)[C@H](O)[C@@H](NC(=O)c4ccccc4)c4ccccc4)C(C)=C1C3(C)C)[C@]1(OC(C)=O)CO[C@@H]1C[C@@H]2O [Paclitaxel] 0.649
Cc1cc(/C=C/c2ccc3cc(N(C)C)ccc3[n+]2C)c(C)n1-c1ccccc1.Cc1cc(/C=C/c2ccc3cc(N(C)C)ccc3[n+]2C)c(C)n1-c1ccccc1.O=C([O-])c1cc2ccccc2c(Cc2c(O)c(C(=O)[O-])cc3ccccc23)c1O [Pyrvinium pamoate] 0.533
CCC1=C[C@@H]2CN(C1)Cc1c([nH]c3ccccc13)[C@@](C(=O)OC)(c1cc3c(cc1OC)N(C)[C@H]1[C@@](O)(C(=O)OC)[C@H](OC(C)=O)[C@]4(CC)C=CCN5CC[C@]31[C@@H]54)C2.O=C(O)[C@H](O)[C@@H](O)C(=O)O.O=C(O)[C@H](O)[C@@H](O)C(=O)O [Vinorelbine Tartrate] 0.622

Same assay, conditions: 1000 nM; SORL1-/- sub-clone: WB8; 24 h

probability, active:
COC(=O)N[C@@H](C)CNc1nccc(-c2cn(C(C)C)nc2-c2cc(Cl)cc(NS(C)(=O)=O)c2F)n1 [Encorafenib] 0.755
O=c1c(-c2ccc(O)cc2)coc2cc(O)cc(O)c12 [Genistein] 0.538
COC1=C(OC)C(=O)C(C/C=C(\C)CC/C=C(\C)CC/C=C(\C)CC/C=C(\C)CC/C=C(\C)CC/C=C(\C)CC/C=C(\C)CC/C=C(\C)CC/C=C(\C)CCC=C(C)C)=C(C)C1=O [Coenzyme Q10] 0.637
COc1cc2c(Oc3ccc4[nH]c(C)cc4c3F)ccnc2cc1OCC1(N)CC1 [Anlotinib] 0.818
COc1cc2ncnc(Nc3ccc(F)c(Cl)c3)c2cc1NC(=O)/C=C/CN1CCCCC1 [Dacomitinib] 0.527

Same assay, conditions: 1000 nM; SORL1-/- sub-clone: WC7; 24 h

probability, active:
CCN1CCN(Cc2ccc(Nc3ncc(F)c(-c4cc(F)c5nc(C)n(C(C)C)c5c4)n3)nc2)CC1.CS(=O)(=O)O 0.658
COc1cc2c3cc1Oc1c(OC)c(OC)cc4c1[C@@H](Cc1ccc(O)c(c1)Oc1ccc(cc1)C[C@@H]3N(C)CC2)N(C)CC4 [Berbamine] 0.999
COc1cc2c(Oc3ccc4[nH]c(C)cc4c3F)ccnc2cc1OCC1(N)CC1 [Anlotinib] 0.621
